Measured values from patent US10196356B2, “Mixed disulfide conjugates of thienopyridine compounds and uses thereof” (The Regents of the University of Michigan, priority 2013, dated 2019).

What was measured:
[1] = Formation of active metabolite H4 from the mixed disulfide conjugates (AM-MP derivatives, LC-MS/MS); format: in vitro ADME; conditions: thiol-exchange, MPB derivatisation
[2] = Kinetics for the reduction of the mixed disulfide conjugates of clopidogrel by GSH (conversion to the AM); format: in vitro ADME; conditions: 1 mM GSH, cytosol
Experimental: The mixed disulfide conjugates were prepared from the reaction mixtures containing 1 mg/ml HLM, 0.1 mM 2-oxoclopidogrel, the NADPH-regenerating system and various thiol reductants and purified using SPE C18 cartridges as described in Materials and Methods. The purified conjugates were then mixed with 1 mM GSH and 0.2 mg/ml cytosol (when present). The conjugate remaining and the AM formed were analyzed using LC-MS/MS. Legend: (A) reduction of the conjugates of BME (◯), CPT (▪), NAC (▾), DFT (▴), and NPT (□) by 1 mM GSH in the presence of 0.2 mg/ml cytosol. (B) reduction of the CPT conjugate by 1 mM GSH in the presence and absence of 0.2 mg/ml cytosol. Legend: (◯), formation of AM in the absence of cytosol; (Δ), formation of the AM in the presence of cytosol; (●), reduction of the conjugate in the absence of cytosol; (▴), reduction of the conjugate in the presence of cytosol. The solid and dashed lines are non-linear curve fittings to a single exponential function.
To examine the reactivity of the mixed disulfide conjugates, the kinetics for the reduction of the mixed disulfide conjugates by GSH were determined. The mixed disulfide conjugates were generated in 1 ml of 50 mM KPi buffer (pH 7.4) buffer containing 1 mg/ml HLM, 0.1 mM 2-oxoclopidogrel and 0.3 or 1 mM thiol reductants. […] The amounts of the mixed disulfide conjugates and the AM were analyzed using LC-MS/MS as described above.

SMILES	stereoisomers of the AM released from the conjugate (H4 formation) [1]	reactivity toward GSH relative to the BME conjugate [2]
COC(=O)C(c1ccccc1Cl)N1CCC(SSc2ncccc2[N+](=O)[O-])C(=CC(=O)O)C1 (centres unmarked) [NPT conjugate]	selective formation of the active isomer H4	–
COC(=O)C(c1ccccc1Cl)N1CCC(SSc2ccc(Cl)nn2)/C(=C\C(=O)O)C1 (centres unmarked) [Clop-CPT]	selective formation of the active isomer H4	20 fold
COC(=O)[C@H](c1ccccc1Cl)N1CCC(SSc2cc(C)oc2C)C(=CC(=O)O)C1 (some centres unmarked) [DFT conjugate]	produced the cis isomers of the AM	10 fold
